Source: paper PMC3742746, “A Novel TetR Family Transcriptional Regulator, SAV576, Negatively Controls Avermectin Biosynthesis in Streptomyces avermitilis”
For at least one entry, the source does not settle the construct or the ends of the probe. No signal at the amounts used counts as a negative. At least one verdict rests on a figure or table, not on a statement of the authors. Protein sequences can lack the tags named with them.

Molecular target: T1, His6-SAV576 (TetR family regulator) (Streptomyces avermitilis ATCC31267) (UniProt Q82QD4)
T1 sequence (looked up, limits assumed): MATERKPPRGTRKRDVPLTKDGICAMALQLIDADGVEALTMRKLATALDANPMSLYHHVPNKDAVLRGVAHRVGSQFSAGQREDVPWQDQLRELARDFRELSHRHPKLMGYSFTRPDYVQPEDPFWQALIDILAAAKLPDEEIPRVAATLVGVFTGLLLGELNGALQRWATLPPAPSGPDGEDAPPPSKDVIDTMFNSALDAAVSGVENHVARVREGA
Test: EMSA
Settings: EMSA: Roche DIG Gel Shift Kit binding buffer (composition not stated), 0.3 nM probe, 1 µg poly[d(I-C)] in 20 µl, 25°C 30 min, 5% PAGE 0.5x TBE, recombinant protein, protein details: His6 (pET-28a), label: 3' DIG

[1] = probe letters rebuilt from the primers and the genome

Sequence | binding result [1] | binding result
AGGACGGTGGCATCGTTTTCAGCCCCTCGTTCCTCCGGTTTCGCGGAAGCGGGCTGTGTGCTGGTGGGCGGCGTAACTGGCGACGGGCAGTCCCGAACTGGTGGCCTTGATGGCCGACGAGGTCGTCAAGGCATGCCTCGGCCAGGAAAAGGCTCAGGCGGGAAGCTGCGCTCGAGGGGTGCAGCAAGGCGCTCGAGCGGCGGCTTCAGCGCACTGCCGCCTGACGTGTGCGGGCGTAGGACCGGGCGAGGCGTGTCGACCGCTCCCACTCCCGGTGTGCTCGCCCGCGGCGGCGGATCGCAGATATGCCCTGCCGAGGAGACCCTGGCGAAC (double strand) [probe 5] | no binding | 
ATCATGGTCGGGAACCTCCGCAATCCGGGCCGGGCGGCCCAGCTGTCGTGGCGATCTACTCCAGGAAACGTAGACCTTTTTCTGCCACTTGTCCGAGCTATGCAGACACCCCGATCCCCTAAGAAATGAACACCCTTGGGAACGGCACAGCCCAGGGGTGGATAGGGGTATTCGCCGCCGCCGCGCCGTCATTAGCTTTGAAGAGTTGAAGACGTTCAAGACATTGATGCCCGGCCGTCAGCGGATTTCTCGCGCTCCTTTCATTCTTCGACGCTGCATTGCAGCTCTCATCATGTCCGCACGGCCGCCGAGCATTGCCTAGCGGTGA (double strand) [probe 8] | no binding | 
GAAACTCAATCGGCAGACCTGGGGTCGAGAAACAGGAACGTTTCGGCCCATCAGGGACGGCGTCGCTCACGCAGCGGGGTCGCATCAGGATCAGGCGCTGCCGAACGCTCTCCCGGCTGGAGGAGGCGAGGGGAGACCGGTCGCCGCCAGCCGGCGGCTCGACCGGGCCACCGGTGGGTGCGCCCCGGGGAGGACACCCACGATCCGCGACGGCGGCCGCGGCTACATCCCGGTGAGCAGCCAATCCCCCTGCCCGCCAGTACGCATCGCGGAGGT (double strand) [probe 3] | no binding | 
GAAGGCATACAGCGTATGGAAACGGGGCGCTGCCGTACCGGCGCCCCGTCACACCGAATGGCGCCCTGCCCGCCTTTCCCCTTGGAGGAGCCAGCCAT (double strand) [probe 1] | binds | 
GGAGGACACCCACGATCCGCGACGGCGGCCGCGGCTACATCCCGGTGAGCAGCCAATCCCCCTGCCCGCCAGTACGCATCGCGGAGGTCGGGTCTGCACCCATGCGCGTCGGCGACTGACGGCAGCGCCGGAGAAGCAGGCGCGTGTGCCGCCTCGCGGCGGCGCCCGTACGTCTCCATGCCGCGCTCGATCAGGCCGGTATCAGTCCGCGAGAGCGGGCAAGGCGGGTTCGCCAGGGTCTCCTCGGCAGGGCATAT (double strand) [probe 4] | no binding | 
GGTATTCCATTCGGTGTTGCAGCACGCGACCCACTGCGCATCCCACTCGTGAATTGTGGACCGCCATCCGGGGCACGGATGTCTCCAGGAAGGAACTCCTTCACCCTCGCGAACACCACCTCAGAATCCCACGATCATCAGTTAATCATCAAAGTCAGCGACCTTGACACTACCCCGCCCACCAGGGCAAATTCATAACA (double strand) [probe 7] | no binding | 
TGAAGGCATACAGCGTATGGAAACGGGGCGCTGCCGTACCGGC (double strand) [probe 1a] |  | binds
